# Test results as given in PubChem BioAssay AID504375 (National Center for Advancing Translational Sciences (NCATS), 2011).
# Protein sequences, listed by entry. Tags and fused reporters are not part of them.
# UniProt Q01196, whole entry, looked up: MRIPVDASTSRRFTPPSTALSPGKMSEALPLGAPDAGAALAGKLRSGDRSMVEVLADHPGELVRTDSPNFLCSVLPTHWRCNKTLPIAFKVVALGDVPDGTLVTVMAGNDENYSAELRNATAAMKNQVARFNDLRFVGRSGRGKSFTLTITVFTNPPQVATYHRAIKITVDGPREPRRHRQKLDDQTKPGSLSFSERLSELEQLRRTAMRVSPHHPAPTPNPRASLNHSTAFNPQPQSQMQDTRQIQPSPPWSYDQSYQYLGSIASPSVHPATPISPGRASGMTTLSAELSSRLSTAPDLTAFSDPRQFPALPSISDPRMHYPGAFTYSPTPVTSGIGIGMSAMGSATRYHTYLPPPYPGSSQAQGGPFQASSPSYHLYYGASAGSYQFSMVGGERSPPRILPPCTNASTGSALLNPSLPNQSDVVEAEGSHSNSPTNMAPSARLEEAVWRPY
# UniProt Q13951, whole entry, looked up: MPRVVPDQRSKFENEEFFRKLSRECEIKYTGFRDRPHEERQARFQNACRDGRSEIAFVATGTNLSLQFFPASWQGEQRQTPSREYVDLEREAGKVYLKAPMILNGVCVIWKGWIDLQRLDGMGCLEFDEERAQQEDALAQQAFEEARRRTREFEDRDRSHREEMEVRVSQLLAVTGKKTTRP
# Out of some 1,600 compounds screened, about 25 (2%) were called active. About 7% were inconclusive and are not listed. The call rests on the fitted dose curve; in most records, active means well fitted inhibition curve with a large enough effect; inconclusive means small, poorly fitted or top-dose-only effect, or effect the other way; inactive means no such curve, though single readings can be large or run the other way. The list shows a part of the results.
# Target: Runt-related transcription factor 1 (Homo sapiens) + Core-binding factor subunit beta (Homo sapiens) (UniProt Q01196+Q13951)
# Test: qHTS Assay for Compounds Blocking the Interaction Between CBF-beta and RUNX1 for the Treatment of Acute Myeloid Leukemia: Hit Validation with Orthogonal Assay
# Conditions: CBFbeta-RUNX1 binding orthogonal assay, biochemical; series mostly up to 41 µM; activity change, negative = inhibition: at the top concentration
# Method in brief: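 This is an orthogonal TR-FRET assay. His6-CBF-beta and biotin-RUNX1 (30 nM each) were preincubated with compound for 30 min, then Tb-anti-His antibody (0.44 ng) and streptavidin-XL665 (5 nM) were added. The signal was read after 90 min.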
# On the % scale 0 is the no-effect control and ±100 the full control effect; potency means the concentration at half of the fitted maximal effect.
Structure (SMILES),"activity change, negative = inhibition",Potency
O=C(CN1C(=O)c2ccccc2S1(=O)=O)c1ccc2c(c1)OCCCO2,inactive: 0.306%,
CCOC(=O)C1=C(C)NC(C)=C(C(=O)OCC)C1,inactive: -3.83%,
Cc1cc([N+](=O)[O-])nn1CC(=O)N/N=C/c1ccccc1O,inactive: 8.38%,
O=C(CC1NCCNC1=O)NC1Cc2ccccc2C1 (stereo not drawn),inactive: 17.6%,
COc1ccc2[nH]c(-c3ccccc3)cc2c1,inactive: 7.05%,
CCOC(=O)NC1c2ccccc2Oc2ccccc21,inactive: 11.8%,
O=C(O)/C=C/C(=O)Nc1ccc(-n2ccc(C(F)(F)F)n2)cc1,inactive: 6.45%,
COc1cc2c(cc1OC)C1(C)N(CC2)C(C(C)=O)=NN1c1ccc(Cl)cc1 (stereo not drawn),inactive: 0.746%,
CCOc1ccc(/C=C2\NC(=S)NC2=O)cc1,inactive: 27.6%,
Cc1ccc(C2=NOC(=O)/C2=C\c2ccc(C)o2)cc1,inactive: -4.73%,
O=C(CCl)NCCCN(C(=O)C(Cl)Cl)c1ccc([N+](=O)[O-])cc1,inactive: 20.2%,
Cn1c(C(=O)c2ccncc2)cc2ccccc21,inactive: 41.3%,
CCOC(=O)/C(C#N)=C/Nc1ccsc1C(C)=O,inactive: 34.3%,
CCCCNc1nc2sc3c(c2c(=O)n1-c1cccc(Cl)c1)CCN(C)C3,inactive: -5.84%,
CCCCc1cc(=O)oc2c(C)c(OCc3nn[nH]n3)ccc12,inactive: 11.9%,
CC(/C=N/n1c(COc2ccccc2)n[nH]c1=S)=C\c1ccco1,inactive: 7.3%,
COc1cc(/C=N/n2nnnc2N)cc(OC)c1OC,inactive: 6.57%,
O=C(O)c1ccccc1Sc1ccccc1S(=O)(=O)NC1CCCCC1,inactive: -9.91%,
COc1ccc(S(=O)(=O)N2CCc3ccccc32)cc1C(=O)Nc1cccnc1,inactive: 1.08%,
COc1ccc(/C=C/C(=O)Oc2cc(O)cc(O)c2)cc1,inactive: 3.35%,
N#CC1CC(c2ccccc2)Nc2cc(Cl)ccc2N1 (stereo not drawn),inactive: -11.5%,
CN(C)c1cc(-c2ccc([N+](=O)[O-])cc2)oc(=O)c1Cl,inactive: 7.12%,
COc1ccc(/C=N/NC(=O)c2ccc3nc[nH]c3c2)cc1OC,inactive: 17.8%,
CCCCc1c(C)nc2cc(-c3ccco3)[nH]n2c1=O,inactive: 5.57%,

# Entries listed so far that have a nitro group on carbon:
Structure (SMILES),"activity change, negative = inhibition",Potency
Cc1cc([N+](=O)[O-])nn1CC(=O)N/N=C/c1ccccc1O,inactive: 8.38%,
O=C(CCl)NCCCN(C(=O)C(Cl)Cl)c1ccc([N+](=O)[O-])cc1,inactive: 20.2%,
CN(C)c1cc(-c2ccc([N+](=O)[O-])cc2)oc(=O)c1Cl,inactive: 7.12%,

# Next part.

Structure (SMILES),"activity change, negative = inhibition",Potency
CC(C)Cn1c(=O)c2c(nc3n2CCS3)n(C)c1=O,inactive: -3.25%,
COc1ccccc1C(=O)Nc1ccc2c(c1)nc(CCNC(=O)c1ccccc1)n2C,inactive: -12.3%,
Cc1c(C(=O)/C=C/N(C)C)nnn1-c1ccc(Cl)cc1Cl,inactive: -1.77%,
CN(C)C(=O)CSc1nnc(NC(=O)CCc2ccccc2)s1,inactive: -2.85%,
Nc1ccc(Oc2ccccc2F)nc1,inactive: 4.8%,
Oc1ccc(-c2nc3ccccc3s2)c(O)c1,inactive: -2.67%,
Cc1ccsc1/C=N/N1CCN(c2ccccn2)CC1,inactive: 3.55%,
COc1ccc(C(=O)NC(=S)Nc2ccc(CN3CCOCC3)cc2)cc1,inactive: -9.35%,
COc1cccc(/C=N/Nc2nc3ccccc3[nH]2)c1O,inactive: 13.1%,
CCN1C/C(=C/c2cccs2)c2nc3ccccc3c(C(=O)O)c2C1,inactive: 30.8%,
Clc1cccc(Cl)c1Cn1nnc(N2CCCC2)n1,inactive: 4.5%,
O=C(CN1C(=O)c2ccccc2S1(=O)=O)c1ccc2c(c1)OCCO2,inactive: -8.88%,
COc1ccc(NC(=O)Nc2nc3ccccc3s2)cc1,inactive: -7.1%,
NNC(=O)c1ccc(Cn2cccn2)o1,inactive: 1.02%,
Cc1ccccc1Nc1nc(N)nc(CCl)n1,inactive: 1.69%,
O=C(O)C1(c2ccccc2)CCN(S(=O)(=O)c2ccc(Cl)s2)CC1,inactive: -15.3%,
Cc1ccc(/C=C/c2nc3ccccc3c(=O)[nH]2)cc1,inactive: -1.31%,
CCOc1ccc(N2C(=O)CC(NNc3nc4ccccc4s3)C2=O)cc1 (stereo not drawn),inactive: -0.856%,
COC(=O)c1cccc(NC(=O)C(C)(C)C)c1,inactive: 2.41%,
COc1cccc(CC(=O)NNC(=O)c2c(-c3ccccc3)noc2C)c1,inactive: -4.42%,
Nc1ccn([C@@H]2O[C@H](CO)[C@@H](O)[C@@H]2O)c(=O)n1,inactive: -5.86% [at 82.4 µM],
Cn1c(=O)c([N+](=O)[O-])c(NCc2ccccc2Cl)c2ccccc21,inactive: 2.23%,
Cc1c(C(=O)/C=C/N(C)C)nnn1-c1ccc(Cl)c(Cl)c1,inactive: 5.85%,
CC(C)NC(=O)Nc1cccc(Cl)c1,inactive: 14.8%,

Structure (SMILES),"activity change, negative = inhibition",Potency
Cc1nc(-c2cc(C#N)c(Sc3cccc(C(F)(F)F)c3)nc2C)cs1,inactive: 0.196%,
CCOC(=O)C(=CNNc1c(C)csc1C(=O)OC)C(=O)OCC,inactive: 0.82%,
Cc1nc([N+](=O)[O-])cn1C(C)C,inactive: -1.09%,
Cc1ccc(Nc2ccccc2)nn1,inactive: -1.1%,
Cn1nc2c3ccccc3n(Cc3ccccc3)c2nc1=S,inactive: -0.881%,
NNC(=O)c1ccc(Cn2cc(Br)cn2)o1,inactive: 10%,
CCOc1ccc2nc(N/C(N)=N/C(=S)Nc3cccc(OC)c3)nc(C)c2c1,inactive: 5.46%,
O=[N+]([O-])c1cc(Cl)cc2c1nc(NCCO)c1ccccc12,inactive: 11.2%,
Cc1nc2c(c(=O)c3ccccc3n2C)c(=O)n1-c1ccccc1,inactive: 1.95%,
CC(=O)Oc1ccc(C(=O)[C@H]2[C@H]3C(=O)N(c4ccc(C)cc4C)C(=O)[C@H]3[C@@H]3C=CC=NN32)cc1,inactive: 30.8%,
CCOC(=O)C1=C(N)Oc2c(oc(CO)cc2=O)C1c1ccc(Cl)cc1 (stereo not drawn),inactive: 3.21%,
COC(=O)c1scc(C)c1NC(=O)/C=C/C(=O)O,inactive: -12.4%,
O=C(O)C1Nc2c(O)cc(Cl)c([N+](=O)[O-])c2C2C=CCC12 (stereo not drawn),inactive: -29.8%,
CC(C)(O)P(=O)(O)CCc1ccccc1,inactive: 15.2%,
CCC(=O)Nc1cccc(-c2cn3cccc(C)c3n2)c1,inactive: 1.54%,
CCNC(=O)NC(=O)c1csc([N+](=O)[O-])c1,inactive: 48.8%,
CN1CCN(C(=O)C23CC4CC(C)(CC(C)(C4)C2)C3)CC1,inactive: -9.9%,
Cc1cc(NS(=O)(=O)c2ccc(NC(=O)CCSc3ccc(F)cc3)cc2)nc(C)n1,inactive: 1.09%,
COc1ccc(NC(=O)CCC(=O)N/N=C/c2ccncc2)cc1,inactive: 6.41%,
Nc1ccc2c(c1)nnn2-c1ccccc1,inactive: 0.477%,
Cc1cc(C)cc(NCCC#N)c1,inactive: -10.6%,
CCCc1cc(=O)c2ccc(OC/C(C)=N/O)cc2o1,inactive: -10.5%,
Cc1nc([N+](=O)[O-])cn1CC(O)c1ccc(Cl)cc1 (stereo not drawn),inactive: 6.18%,
Cc1ccc(S(=O)(=O)N(C)C)cc1[N+](=O)[O-],inactive: 11.9%,

# In the list so far, 5 contain two or more sulfur atoms.
Structure (SMILES),"activity change, negative = inhibition",Potency
O=C(O)c1ccccc1Sc1ccccc1S(=O)(=O)NC1CCCCC1,inactive: -9.91%,
CN(C)C(=O)CSc1nnc(NC(=O)CCc2ccccc2)s1,inactive: -2.85%,
O=C(O)C1(c2ccccc2)CCN(S(=O)(=O)c2ccc(Cl)s2)CC1,inactive: -15.3%,
Cc1nc(-c2cc(C#N)c(Sc3cccc(C(F)(F)F)c3)nc2C)cs1,inactive: 0.196%,
Cc1cc(NS(=O)(=O)c2ccc(NC(=O)CCSc3ccc(F)cc3)cc2)nc(C)n1,inactive: 1.09%,

# Additional records

Structure (SMILES),"activity change, negative = inhibition",Potency
Cc1ccc(NC(=O)CSc2n[nH]c(N)n2)cc1S(=O)(=O)N1CCOCC1,inactive: 8.81%,
CC(=O)c1nnn(-c2ccc(F)cc2F)c1C,inactive: -8.38%,
O=S(=O)(c1ccc(C(F)(F)F)cc1)N1CCCN(c2ccc(C(F)(F)F)cn2)CC1,inactive: -8%,
CC(=O)Nc1ccc(S(=O)(=O)N2CCN(CC(=O)N3CCOCC3)CC2)cc1,inactive: -4.01%,
Cc1cc(=O)[nH]c(SCC(=O)NN(c2ccccc2)c2ccccc2)n1,inactive: 6.04%,
O=C(O)c1ccccc1C(=O)Nc1ccccc1[N+](=O)[O-],inactive: 6.23%,
CCN(CC)C(=O)CSc1nnc2nnc3cc(C)ccc3n12,inactive: 84%,
COc1ccccc1N1C(=O)C=C(Sc2nc(C)cc(C)n2)C1=O,inactive: 5.51%,
COc1cc(/C=N/NC(=O)Cn2cnc3c2c(=O)n(C)c(=O)n3C)ccc1O,inactive: -3.3%,
COc1ccc(C(=O)CN2C(=O)c3ccccc3S2(=O)=O)cc1,inactive: 4.49%,
Cc1ccccc1Nc1ncc(C#N)c(N)n1,inactive: 5.82%,
COc1cc(N=Nc2ccccc2C(=O)O)ccc1O,inactive: 37.1%,
COc1ccc(N/C=C/C(=O)c2ccc(OC)c(OC)c2)cc1,inactive: 20.7%,
COc1cccc(C2Oc3ccccc3C3CC(c4cccs4)=NN32)c1 (stereo not drawn),inactive: -4.17%,
O=C(N/N=C/C(Br)=C/c1ccccc1)C(O)c1ccccc1 (stereo not drawn),inactive: 8.96%,
COc1cccc(/C=N/NC(=O)Cn2cnc3c2c(=O)n(C)c(=O)n3C)c1,inactive: 12.8%,
CC1SCC(NC(=O)c2ccc(Cl)cc2)CS1 (stereo not drawn),inactive: -3.1%,
Cc1onc(-c2c(Cl)cccc2Cl)c1C(=O)c1ccc(F)cc1,inactive: -0.245%,
O=C(CS(=O)(=O)c1ccc(C(F)(F)F)cn1)NNC(=O)c1ccccc1,inactive: -6.59%,
COc1cccc(/C=N/NC(=O)Cn2nc([N+](=O)[O-])cc2C)c1,inactive: 4.69%,
Cc1ccc(Cn2nc(C)cc2C(=O)Nc2ccc(Cl)cc2)cc1,inactive: 5.65%,
CC(=O)c1sc(-c2ccccc2)cc1NS(=O)(=O)c1ccc(C)cc1,inactive: 14.3%,
COc1cccc(/C=N/NC(=O)c2cnccn2)c1OC,inactive: 12.2%,
O=Cc1ccc(O)c2ncccc12,inactive: 29.7%,

Structure (SMILES),"activity change, negative = inhibition",Potency
CC(C)NC(=O)NNC(=O)Cn1nnc(-c2cccc(Cl)c2Cl)n1,inactive: 2.25%,
O=C(Oc1ccc(NC(=O)c2cc3c(cc2Br)OCO3)cc1)c1ccccc1,inactive: 4.8%,
COC(=O)c1cnc(Nc2cccc(C(F)(F)F)c2)c([N+](=O)[O-])c1,inactive: 31.8%,
CC1CC(OC(=O)CN2CCCCC2)CC(C)(C)C1 (stereo not drawn),inactive: 7.39%,
CC(O)(c1ccccc1)C(c1ccccc1)C1CCCCN1 (stereo not drawn),inactive: -1.71%,
O=C1CC(N2CCN(S(=O)(=O)c3ccccc3)CC2)C(=O)N1c1ccccc1 (stereo not drawn),inactive: 3.16%,
CCOC(=O)C1(C)C=C(Nc2cccc(OC)c2)C(=O)N1c1ccccc1 (stereo not drawn),inactive: 2.85%,
NNC(=O)c1ccc(COc2cccc3ccccc23)o1,inactive: 14%,
O=C(O)c1ccccc1C1Nc2ccccc2C(=O)N1CCCN1CCOCC1 (stereo not drawn),inactive: -5.48%,
CC(=O)c1cc(O)c2ccccc2c1O,inactive: 54.6%,
CCOC(=O)c1c(C)n(C)c2ccc(OC)c(NC(=O)CCN3CCC(Cc4ccccc4)CC3)c12,inactive: -10.7%,
CC(=O)c1ccc(Sc2ccccc2)c([N+](=O)[O-])c1,inactive: 17.1%,
CCOc1ccc(C2C3=C(CCCC3=O)OC(N)=C2[N+](=O)[O-])cc1 (stereo not drawn),inactive: 19.4%,
Oc1ccc2ccccc2c1N=Nc1nccs1,inactive: 53.1%,
CN(C)CCCNc1cc(C(C)(C)C)nc2c(-c3ccccc3)cnn12,inactive: 9.74%,
COC(=O)c1sccc1NC(=O)CC1C(=O)NCCN1C(=O)Nc1ccccc1 (stereo not drawn),inactive: 6.19%,
NC(=O)c1c(NC(=O)Cn2nc(C(=O)O)c3ccccc3c2=O)sc2c1CCCC2,inactive: 3.38%,
COc1cccc(/C=N/NC(=O)c2ccc3nc[nH]c3c2)c1,inactive: 10.1%,
CC(=O)N1N=C2c3ccccc3CCC2C1c1cccs1 (stereo not drawn),inactive: 7.29%,
O=C(/C=C/c1cn(CC(O)CN2CCCCC2)c2ccccc12)c1ccccc1 (stereo not drawn),inactive: 7.34%,
CNS(=O)(=O)c1ccc2ccccc2c1,inactive: -5.64%,
Cc1ccc(Cl)cc1NC(=S)N(CCN(C)C)C(C)c1ccccn1 (stereo not drawn),,active: 1.22 µM
